Reference: patent EP1333824B1, “TREATMENT OF SEXUAL DYSFUNCTION WITH BOMBESIN RECEPTOR ANTAGONISTS” (Warner-Lambert Company LLC, priority 2000, dated 2002)

Experiment: Plasma sexual hormone levels by radioimmunoassay
Type: in vivo, rat
Conditions: Compound (1) 3-10mg/kg 1h before blood collection; vs vehicle

COc1ccc(C2(CNC(=O)[C@](C)(Cc3c[nH]c4ccccc34)NC(=O)Nc3ccc([N+](=O)[O-])cc3)CCCCC2)nc1 [Compound (1), (S) 3-(1H-Indol-3-yl)-N-[1-(5-methoxy-pyridin-2-yl)-cyclohexyl-methyl]-2-methyl-2-[3-(4-nitro-phenyl)-ureido]-propionamide]
no effect: FSH plasma levels | oestradiol plasma levels | prolactin plasma levels
